Results are given in words; binding and its absence hold for the method and conditions named. For some of these results: In cells and extracts the contact can be indirect. Some results given as binding are weak or reduced against the parent protein; the word gives no strength. For some of these results: Where a sequence is shown, tags or fusion partners need not be part of it.

By UniProt entry, the sequences of proteins in these tests, tags left out.
UniProt P50552: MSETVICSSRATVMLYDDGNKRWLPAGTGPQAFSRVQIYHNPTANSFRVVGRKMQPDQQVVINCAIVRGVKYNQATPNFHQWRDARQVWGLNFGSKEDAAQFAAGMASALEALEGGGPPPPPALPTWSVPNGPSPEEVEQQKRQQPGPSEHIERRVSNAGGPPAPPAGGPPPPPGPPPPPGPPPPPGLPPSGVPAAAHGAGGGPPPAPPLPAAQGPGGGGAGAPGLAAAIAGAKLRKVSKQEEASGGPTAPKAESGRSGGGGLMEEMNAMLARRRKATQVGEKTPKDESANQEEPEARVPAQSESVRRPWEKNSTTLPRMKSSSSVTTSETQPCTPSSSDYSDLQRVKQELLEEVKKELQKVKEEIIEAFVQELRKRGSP
UniProt Q12929: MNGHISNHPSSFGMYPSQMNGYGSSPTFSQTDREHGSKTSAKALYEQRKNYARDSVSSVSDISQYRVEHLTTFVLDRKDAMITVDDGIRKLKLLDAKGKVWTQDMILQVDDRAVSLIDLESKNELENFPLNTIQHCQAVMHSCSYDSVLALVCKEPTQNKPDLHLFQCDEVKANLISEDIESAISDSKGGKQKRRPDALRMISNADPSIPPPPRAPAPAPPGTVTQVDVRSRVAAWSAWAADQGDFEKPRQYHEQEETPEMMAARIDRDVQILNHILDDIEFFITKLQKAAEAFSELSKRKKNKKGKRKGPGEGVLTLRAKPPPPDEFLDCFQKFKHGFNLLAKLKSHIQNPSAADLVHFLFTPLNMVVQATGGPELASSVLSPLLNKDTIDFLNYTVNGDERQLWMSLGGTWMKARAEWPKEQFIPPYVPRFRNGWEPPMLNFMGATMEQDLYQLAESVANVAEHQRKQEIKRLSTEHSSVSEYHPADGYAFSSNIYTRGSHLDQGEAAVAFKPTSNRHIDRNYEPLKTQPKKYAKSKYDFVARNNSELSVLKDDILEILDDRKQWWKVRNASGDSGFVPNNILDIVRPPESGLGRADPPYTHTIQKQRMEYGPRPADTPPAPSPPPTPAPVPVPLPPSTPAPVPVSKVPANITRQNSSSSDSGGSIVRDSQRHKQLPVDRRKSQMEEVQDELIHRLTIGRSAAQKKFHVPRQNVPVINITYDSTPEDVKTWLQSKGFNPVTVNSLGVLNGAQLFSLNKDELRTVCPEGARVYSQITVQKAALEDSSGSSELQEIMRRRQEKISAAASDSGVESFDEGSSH

For assay [1], the target named is VASP, endogenous in HeLa cells (human (endogenous in HeLa)) (UniProt P50552). In words: co-IP; HeLa cell lysates (1 mg) immunoprecipitated with anti-VASP or control antibodies, immunoblotted; also in cells treated with scrambled oligo or knocked down for Eps8. A general note: Immunoblotting shows a protein as a band on a membrane.
The target of another assay is T1, GST-IRSp53-SH3 (UniProt Q9UQB8).
T1 sequence: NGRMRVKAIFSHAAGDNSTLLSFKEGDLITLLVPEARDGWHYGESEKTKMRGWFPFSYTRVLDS
The assay can be described thus: far-Western, overlay or dot blot; 10 pmoles of His-IRSp53, GST-IRSp53-SH3 or BSA spotted onto nitrocellulose, incubated with increasing concentrations of purified VASP; anti-VASP immunoblot; fraction bound against total VASP; apparent dissociation constant; both purified.

The next assay addresses His-IRSp53 (UniProt Q9UQB8). In words: far-Western, overlay or dot blot; competition: 10 pmoles of His-IRSp53 spotted onto nitrocellulose, incubated with 100 nM purified VASP or BSA, without or with increasing amounts of GST-PPP or GST; immunoblot; both purified.

Regarding “Eps8, endogenous in HeLa cells (from UniProt Q12929 1-822)”, the binding entry in assay [1] was “no binding”.

With “IRSp53 in HeLa cell lysate (from UniProt Q9UQB8 1-552)”, the binding entry in assay [1] is listed as “binds”.

“VASP, recombinant, cleaved from GST (from UniProt P50552 1-380)”: the binding result with GST-IRSp53-SH3 and with His-IRSp53 was “binds” throughout.

Values taken from paper PMC3140970.
